In patent US5098839:
Where a protein sequence is shown, tags need not be part of it.

Target: T1, PacI restriction endonuclease (Pseudomonas alcaligenes) (UniProt D5MNX7)
T1 sequence (looked up, limits assumed): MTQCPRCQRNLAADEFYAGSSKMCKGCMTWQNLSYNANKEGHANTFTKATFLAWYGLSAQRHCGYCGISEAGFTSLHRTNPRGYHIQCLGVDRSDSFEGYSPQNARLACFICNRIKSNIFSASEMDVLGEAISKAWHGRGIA
Experiment: enzyme reaction in vitro
Details: 10 mM Tris-HCl, 10 mM MgCl2, 1 mM DTT, BSA, 37 C in activity assay; cleavage site mapped on primer-extended plasmid DNA; purified native protein; only the site is given

Sequence: TTAATTAA (double strand) [PacI recognition site in pvPACI-IIB plasmid]
- activity on this sequence: active
